Assay results: the supplement of paper PMC6522484
± gives the standard deviation of the averaged measurements. For some of these results: This list holds what a sample rich in lowest values left over. The list shows a part of the results, in another mix than the full data.

Tests used:
Test in all cases: cell viability (CellTiter-Glo) relative to plate median (fraction of plate median); higher = more viable cells
[1] = test system: DLD1; settings: 5 µM; treatment time 24 h; reporter: 7TFP
Summary of the method: (§1)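 Colorectal cancer cell lines stably transduced with lentiviral TCF/Wnt firefly luciferase reporters (7TFP or TCF4/Wnt) were seeded in 384-well plates. 24 h later they received library compounds at a final 5 µM for 24 h. Parallel plates were read for firefly luciferase or CellTiterGlo luminescence on a Tecan F500 reader. Each well's signal was normalised to the plate median (webcellHTS2, additive, no log transformation), and the mean of two independent replicates is reported.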

[2] = test system: HCT116; settings: 5 µM; treatment time 24 h; reporter: TCF4/Wnt
Summary of the method: as §1

[3] = test system: SW480; settings: 5 µM; treatment time 24 h; reporter: 7TFP
Summary of the method: as §1

[4] = test system: DLD1; settings: 10 µM, treatment time 24 h
Summary of the method: as §1, with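 “received kinase inhibitor” for “received”, “final 10” for “final 5”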

[5] = test system: HCT116; settings: 10 µM; treatment time 24 h; reporter: TCF4/Wnt
Summary of the method: as §1, with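 “received kinase inhibitor” for “received”, “final 10” for “final 5”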

[6] = test system: SW480; settings: 10 µM; treatment time 24 h; reporter: 7TFP
Summary of the method: as §1, with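 “received kinase inhibitor” for “received”, “final 10” for “final 5”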

**Q.** What does the source list for CN1C2CCC1CC(OC(=O)C(O)c1ccccc1)C2 (configuration not stated)?
**A.** cell viability [1]: 1.1 ± 0.014; cell viability [2]: 1.09 ± 0.042; cell viability [3]: 1.15 ± 0.028

**Q.** What does the source list for Cc1ccccc1-n1c(Cn2nc(-c3cccc(O)c3)c3c(N)ncnc32)nc2cccc(C)c2c1=O?
**A.** cell viability ([4]; reporter: 7TFP): 0.939 ± 0.0071; cell viability ([4]; reporter: TCF4/Wnt): 0.987 ± 0.033; cell viability [5]: 1.15 ± 0.2; cell viability [6]: 0.967 ± 0.0085
